These are literature values, as cited in US20040152666A1, “Methods of reducing complications associated with peritoneal dialysis in patients with diabetes obesity and/or hyperlipidemia” (priority 2002, published 2004).

Entries after “also recorded” stand apart in the source; their conditions may differ.

The conditions of this series: intravenous infusion (refs. 20, 16); cited from earlier work.

Turning to `CC(=O)N[C@H]1C(O)O[C@H](CO)[C@@H](O)[C@@H]1O` (stereo partly shown) [NAG, N-acetylglucosamine], the “change of blood glucose level after intravenous infusion” value is listed as “none or only slight increase of blood glucose level; also recorded: hypoglycemia”.
